Measured values from publication doi:10.1101/2020.08.10.245050.
Results are given in words; binding and its absence hold for the method and conditions named.

B1: ACR4^WD40-CRD ectodomain (residues 1 - 423) (domain or fragment, UniProt Q9LX29 30-423)
chain: LGSMSSIAISYGEGGSVFCGLKSDGSHLVVCYGSNSAILYGTPGHLQFIGLTGGDGFMCGLLMLSHQPYCWGNSAFIQMGVPQPMTKGAEYLEVSAGDYHLCGLRKPIVGRRKNSNIISSSLVDCWGYNMTRNFVFDKQLHSLSAGSEFNCALSSKDKSVFCWGDENSSQVISLIPKEKKFQKIAAGGYHVCGILDGLESRVLCWGKSLEFEEEVTGTSTEEKILDLPPKEPLLAVVGGKFYACGIKRYDHSAVCWGFFVNRSTPAPTGIGFYDLAAGNYFTCGVLTGTSMSPVCWGLGFPASIPLAVSPGLCIDTPCPPGTHELSNQENSPCKFTGSHICLPCSTSCPPGMYQKSVCTERSDQVCVYNCSSCSSHDCSSNCSSSATSGGKEKG
B2: ACR4^WD40, isolated β-propeller (WD40) domain of ACR4 (residues 1 - 334) (domain or fragment, UniProt Q9LX29 30-334)
chain: LGSMSSIAISYGEGGSVFCGLKSDGSHLVVCYGSNSAILYGTPGHLQFIGLTGGDGFMCGLLMLSHQPYCWGNSAFIQMGVPQPMTKGAEYLEVSAGDYHLCGLRKPIVGRRKNSNIISSSLVDCWGYNMTRNFVFDKQLHSLSAGSEFNCALSSKDKSVFCWGDENSSQVISLIPKEKKFQKIAAGGYHVCGILDGLESRVLCWGKSLEFEEEVTGTSTEEKILDLPPKEPLLAVVGGKFYACGIKRYDHSAVCWGFFVNRSTPAPTGIGFYDLAAGNYFTCGVLTGTSMSPVCWGLGFPASIP

Tests used:
[1] = biological target: ACR4^WD40-CRD ectodomain (residues 1 - 423) (Arabidopsis thaliana) (UniProt Q9LX29); test: SEC
[2] = biological target: ACR4^WD40, isolated β-propeller (WD40) domain of ACR4 (residues 1 - 334) (Arabidopsis thaliana) (UniProt Q9LX29); test: SEC

Binder | binding [1] | binding [2]
B1 | no binding | –
B2 | – | no binding
